Measurements reported in PubChem BioAssay AID1259254 (NCATS, 2017)
Assay: 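Finding genes that stop cells copying their DNA twice in one cycle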 (primary screen). Cells: human HCT116 colorectal cancer cells. Knock-down reagent: single siRNA against human genes. Timing: 3 days. Detection: 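Nuclei stained with Hoechst and imaged; cell-cycle phase assigned by DNA content; G2 share scaled per plate, non-targeting siRNA 0%, GMNN siRNA 100%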. Reading the numbers: G2 robust z-score: higher = more G2 cells, more excess DNA replication. Hit rule: 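Active siRNAs have a G2 robust z of 5 or more median absolute deviations over the median, which in these data means about 38% or higher of GMNN control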.
This is one part, drawn at random, of about 59,000 reagents tested. About 1,550 of all reagents (2.6%) were called active. 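G2 share is only a proxy for re-replication; each gene was hit by three separate siRNAs, and active genes were retested.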 Reagents against one gene are numbered here. Further read-outs or replicates are left out here. Not given: the amount of reagent.

{"gene": "OR10K2", "reagent no.": 1, "G2 robust z-score": -0.308, "outcome": "inactive"}
{"gene": "OR10K2", "reagent no.": 2, "G2 robust z-score": 4.91, "outcome": "inactive"}
{"gene": "OR10K2", "reagent no.": 3, "G2 robust z-score": -1.05, "outcome": "inactive"}
{"gene": "SCUBE1", "reagent no.": 1, "G2 robust z-score": -1.8, "outcome": "inactive"}
{"gene": "SCUBE1", "reagent no.": 2, "G2 robust z-score": 0.509, "outcome": "inactive"}
{"gene": "SCUBE1", "reagent no.": 3, "G2 robust z-score": 0.477, "outcome": "inactive"}

2 of these entries in another layout:
gene | reagent no. | G2 robust z-score | outcome
SCUBE1 | 1 | -1.8 | inactive
SCUBE1 | 2 | 0.509 | inactive

The results go on.
{"gene": "MYO15A", "reagent no.": 1, "G2 robust z-score": 0.808, "outcome": "inactive"}
{"gene": "MYO15A", "reagent no.": 2, "G2 robust z-score": 0.168, "outcome": "inactive"}
{"gene": "MYO15A", "reagent no.": 3, "G2 robust z-score": 0.589, "outcome": "inactive"}
{"gene": "MFSD6L", "reagent no.": 1, "G2 robust z-score": 0.245, "outcome": "inactive"}
{"gene": "MFSD6L", "reagent no.": 2, "G2 robust z-score": 0.738, "outcome": "inactive"}
{"gene": "MFSD6L", "reagent no.": 3, "G2 robust z-score": -0.547, "outcome": "inactive"}
{"gene": "ANKRD55", "reagent no.": 1, "G2 robust z-score": -0.373, "outcome": "inactive"}
{"gene": "ANKRD55", "reagent no.": 2, "G2 robust z-score": -0.177, "outcome": "inactive"}
{"gene": "ANKRD55", "reagent no.": 3, "G2 robust z-score": -1.01, "outcome": "inactive"}
{"gene": "NRF1", "reagent no.": 1, "G2 robust z-score": -0.292, "outcome": "inactive"}
{"gene": "NRF1", "reagent no.": 2, "G2 robust z-score": 0.521, "outcome": "inactive"}
{"gene": "NRF1", "reagent no.": 3, "G2 robust z-score": 0.0621, "outcome": "inactive"}
